The source of these data is the supplement of paper PMC3334620.

The full ranking holds about 33,000 sequences; the median of “E-score (-0.5 to 0.5)” is about -0.0014, and the highest 2% start at about 0.25. The list shows a part of the results.

The test deals with T1, Cad1 (UniProt P24813).
T1 sequence: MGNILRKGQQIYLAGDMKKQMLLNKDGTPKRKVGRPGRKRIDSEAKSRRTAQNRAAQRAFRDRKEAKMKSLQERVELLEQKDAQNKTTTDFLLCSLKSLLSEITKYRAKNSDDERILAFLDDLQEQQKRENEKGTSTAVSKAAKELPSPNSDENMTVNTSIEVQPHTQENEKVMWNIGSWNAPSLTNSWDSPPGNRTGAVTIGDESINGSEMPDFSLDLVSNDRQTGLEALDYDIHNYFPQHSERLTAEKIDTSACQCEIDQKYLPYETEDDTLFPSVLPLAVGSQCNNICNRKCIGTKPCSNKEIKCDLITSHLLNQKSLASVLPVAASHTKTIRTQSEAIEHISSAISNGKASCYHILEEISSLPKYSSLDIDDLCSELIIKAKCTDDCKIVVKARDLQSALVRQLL
Kind of test: PBM E-score (8-mer binding enrichment) (E-score (-0.5 to 0.5)); higher = stronger / more preferred TF binding. Conditions: protein concentration: 100 nM; construct: GST-full length. An outline of the steps: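 E-scores (a modified Wilcoxon-Mann-Whitney statistic) were assigned by the Universal PBM Analysis Suite to every ungapped eight-base word pooled with its reverse complement. The input came from universal all-10-mer Agilent arrays made double-stranded by primer extension and probed with GST-tagged yeast transcription factors at about 100-200 nM. Fluorescent anti-GST detected bound protein, and masliner normalised the scans.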
Turning to AGGGCGCG, the “PBM E-score” value was -0.143.
As for AGCAATTC, the “PBM E-score” value was 0.0611.
Under CCTCAGTC stands -0.157; under CCACCATC, -0.291; under AAACTCAG, -0.00451.
Under CGCCCGAA stands -0.0571; under ATTCCATA, 0.0418; under CGATTTAC, -0.0171.
Turning to AATGTTTA, the “PBM E-score” value is -0.00152.
In the case of ATTACCCA it was 0.103; in that of TCTTATCA, 0.267.
For the sequence ACTAGGTC, the “PBM E-score” value is -0.129.
On to GATCGCCC, for which the “PBM E-score” value was 0.0373.
In the case of ACAAGCTA it was -0.0357; in that of CGACGGCC, 0.0302; in that of ACGAGCCG, 0.0438.
With AGGAATTC, the “PBM E-score” value is -0.11.
As to AAAACGCT, the “PBM E-score” value was -0.0644.
In the case of ACCGTCCA, the “PBM E-score” value worked out at 0.00248.
On to CAACTATA, for which the “PBM E-score” value was -0.0552.
With ACGGGGTG, the “PBM E-score” value was -0.018.
Under TGAATTAA stands 0.139; under AGATTGGG, 0.0333.
For CCTTCACC, the “PBM E-score” value is -0.263.
In the case of ACGTCAAT it was -0.0902; in that of AAAATTTC, 0.204; in that of ATGCAGCA, 0.187.
In the case of CAACGGTG it was -0.164; in that of CACCGCGA, 0.0204; in that of GTCCTGCA, -0.184.
With ACATTTCG, the “PBM E-score” value is -0.082.
ATGGTCCG: the “PBM E-score” value worked out at 0.155.
Consider CCCCCCGA, for which the “PBM E-score” value was -0.47.
ATGCGGGC: the “PBM E-score” value was -0.103.
With CGGTGTTA, the “PBM E-score” value is -0.0163.
As for ACATCAGT, the “PBM E-score” value was 0.122.
Consider CAAGAAAC, for which the “PBM E-score” value was 0.0259.
As for ATGCACGC, the “PBM E-score” value turned out to be 0.0656.
Turning to CGTACAAC, the “PBM E-score” value was -0.0151.
Regarding TCCTACAA, the “PBM E-score” value is -0.0246.
Under AGTCGCAG stands -0.0471; under TGCCCACA, -0.221.
In the case of GCCCCGTA it was -0.177; in that of CAACCCAA, -0.17; in that of GGCCACTA, -0.0002.
ACCAGGCT: the “PBM E-score” value is -0.197.
Turning to GGTTGGAA, the “PBM E-score” value was -0.0209.
Take ACGTTGTC: the “PBM E-score” value was -0.00465.
For the sequence CGAGACAG, the “PBM E-score” value was -0.0432.
As for ATGAGTAG, the “PBM E-score” value amounted to 0.0743.
In the case of AAGCACGC, the “PBM E-score” value was found to be 0.0654.
Regarding GAAAGTTA, the “PBM E-score” value is 0.0648.
As to CATGAGCG, the “PBM E-score” value worked out at 0.0942.
Under GCCCTAGA stands -0.311; under GACCTATC, -0.0167.
Under AATAAACT stands 0.12; under AATTTGAT, 0.0957; under CGTCGCTC, -0.0127.
With GGGCCCAC, the “PBM E-score” value was -0.0728.
Turning to ACCGCTCA, the “PBM E-score” value was found to be 0.00784.
Turning to ATTTCGAC, the “PBM E-score” value was -0.0837.
On to GCAACAGC, for which the “PBM E-score” value was -0.076.
Turning to CGGGAGTA, the “PBM E-score” value is 0.0466.
Under ACTCGGAA stands 0.126.
In the case of TATCGGCA it was 0.00129; in that of CCCCAATC, -0.109; in that of TTCAGCAA, 0.0539.
As for ACAACCGC, the “PBM E-score” value worked out at 0.135.
With CGGATAAG, the “PBM E-score” value was found to be 0.0425.
Turning to CGTGGCCC, the “PBM E-score” value is -0.0558.
For AATCTCGA, the “PBM E-score” value was 0.123.
Take ACCATATA: the “PBM E-score” value is 0.144.
Under GGGGTGCA stands -0.216; under CGACTGCG, -0.0765; under GTCATGAC, 0.288.
In the case of ACCCTAGT it was -0.147; in that of CGAAACAA, 0.195; in that of ACCAAATG, 0.0613.
In the case of GCAATCCA, the “PBM E-score” value was 0.0441.
GAAACTCA: the “PBM E-score” value worked out at 0.123.
In the case of AAGAGCGA it was -0.231; in that of CCTCCTCA, -0.235; in that of AACTGAGT, 0.148.
Regarding TCCAGACA, the “PBM E-score” value is -0.0833.
In the case of GACTTGTA it was -0.0735; in that of AGCCCAGG, -0.269.
On to GAGACGCC, for which the “PBM E-score” value was -0.128.
Regarding GTAACTCA, the “PBM E-score” value was -0.129.
In the case of AGACACGC, the “PBM E-score” value is -0.182.
With AATGGTAT, the “PBM E-score” value was 0.109.
In the case of CTACCTCC it was -0.157.
AAGGAGGG: the “PBM E-score” value is -0.0877.
CAAACGGA: the “PBM E-score” value was -0.0795.
For the sequence ACACTGCG, the “PBM E-score” value stood at 0.0497.
For ACTGCCCT, the “PBM E-score” value is -0.0853.
As for ACCCATAC, the “PBM E-score” value came out at 0.00827.
Take AAAAAGGC: the “PBM E-score” value was found to be 0.0352.
In the case of AAAGTGCA, the “PBM E-score” value turned out to be 0.00528.
In the case of ACATAGAT, the “PBM E-score” value came out at 0.0106.
Regarding CGCGGCGC, the “PBM E-score” value turned out to be 0.174.
Turning to ATCGCTGA, the “PBM E-score” value came out at 0.128.
As to CAAGAGAC, the “PBM E-score” value is -0.0144.
In the case of CCCCACAC it was -0.104.
Take CCCCTTTC: the “PBM E-score” value is -0.157.
As to TCACCGGA, the “PBM E-score” value was -0.0337.
Under GGAGAAAC stands -0.122; under ATGTGATG, -0.00561.
ATCAAAGC: the “PBM E-score” value was 0.0843.
As to TCGGCCGA, the “PBM E-score” value turned out to be 0.173.
